{"source": "paper doi:10.1101/2020.02.13.946640", "about": "(bioRxiv, 2020)", "target": "c subunit of Thermus thermophilus V/A-ATPase, His3-tagged (Thermus thermophilus) (UniProt Q5SIT7)", "assay": "cryo-EM structure", "note": "No constants are given. Whether binding was seen depends on the method and setting. Binding calls can cover weak binding; strength is not graded here."}
{"binder": "a subunit of Thermus thermophilus V/A-ATPase (protein, UniProt Q5SIT6 1-652) MIAPMEKLVLAGPKGRAKELLQSLQQAGVVHLETLRPEALSAYQLSPEERAELRRWEAVSAGAEHTLSLLGLEAEPARPFPEGLEAAEKALSPIQAHAEGLTRQKQELEEELALAQAYLEPLERLAALAHGLDKSPFLRVIPFLLTEKELPLVEEALRKALEDRYLLAHEAYAGGVAALVVVHRKEVDQAKAALSRAGVAELRLPGALGELPLSEAARRLKERAEAAPRELSEVRQHLAKLARESASTLQSLWTRAQDEVARLKALEELASGRFGFALLGYVPVKAKPKVEEALARHKESVVYAFEPVDEHHEADRIPVVLDNPPWAKPFELLVSFLNTPKYGTFDPTPVVPVFFPFWFGMIVGDIGYALLFYLVGRWLSGYVKRNEPLVIDLFALKLKPQVIGKLVHILNWMVFWTVVWGVIYGEFFGTFLEHLGVFGTPEHPGLIPILIHRIDTAKTANLLILLSVAFGVVLVFFGLALRAYLGLKHRHMAHFWEGVGYLGGLVGVLALAASYLGNLQAGWLQGLMYLGFGVFLLAVLMSRIWLMIPEIFTQAGHILSHIRIYAVGAAGGILAGLLTDVGFALAERLGLLGVLLGLLVAGVLHLLILLLTTLGHMLQPIRLLWVEFFTKFGFYEENGRPYRPFKSVREAQ", "values": [{"measurement": "binding", "result": "binds"}]}
